These are yes or no findings as the source states them, for the method shown. In cells and extracts the contact can be indirect. Some results given as binding are weak or reduced against the parent protein; the word gives no strength.

The target in test [1] is heterogeneous nuclear ribonucleoprotein (hnRNP) K, endogenous (human (endogenous in A375 and HPDE)) (UniProt P61978). Nature of the test: co-IP; A375 cells treated with staurosporine for the indicated time, soluble and pellet fractions; 500 ug lysate immunoprecipitated with IgG or hnRNP K antibody, immunoblot with eIF3f and hnRNP K antibodies. Background: In western blotting, separated proteins are transferred to a membrane and probed.

The target of test [2] is GST-eIF3f, full length (recombinant) (human) (UniProt O00303). Briefly: pull-down; GST pull-down: 35S-labeled in vitro transcribed and translated hnRNP K incubated with GST, full length GST-eIF3f or 4 deletion mutants; bound hnRNP K separated by SDS-PAGE, autoradiography; only the target purified.
The target of test [3] is eukaryotic initiation factor 3 subunit f (eIF3f), endogenous (human (endogenous in A375 and HPDE)) (UniProt O00303). Nature of the test: co-IP; HPDE cells treated with DMSO or etoposide (10 uM) for 24 hours; lysates immunoprecipitated with IgG or eIF3f antibody, immunoblot with eIF3f and hnRNP K antibodies.

Take “eukaryotic initiation factor 3 subunit f (eIF3f), endogenous (from UniProt O00303 1-357)”: in test [1], the binding entry is listed as “binds”.

Turning to “hnRNP K, in vitro transcribed and translated, 35S-labeled (from UniProt P61978 1-463)”, in test [2], the binding entry is “binds”.

For “heterogeneous nuclear ribonucleoprotein (hnRNP) K, endogenous (from UniProt P61978 1-463)”, the binding entry in test [3] is “binds”.
